{"source": "PubChem BioAssay AID1259268 (Sanger Institute, 2017)", "test": "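Kinase silencing that acts in synergy with trametinib, cetuximab or BYL719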 (follow-up of hits)", "system": "human SNUC1 colorectal cancer cells", "reagents": "single siRNA against human genes", "conditions": "anchor drugs added a day after transfection: BYL719 1 µM, cetuximab 5 µg/ml or trametinib 10 nM, versus DMSO vehicle", "measured": "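Mean viability per well relative to non-targeting pool 2 siRNA, plus a synergy score weighing the joint knock-down and drug effect against each effect alone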", "scale": "synergy score with trametinib and synergy score with cetuximab and synergy score with BYL719: higher = stronger synergy of knock-down with drug", "active means": "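Inactive when no drug gives a synergy score over 0.1, otherwise active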", "calls": "active = synergy with at least one drug; inactive = no synergy with any drug", "note": "The deposit covers 160 reagents; shown is an unselected part. Of all reagents, 58 (36%) were called active. 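Trametinib by itself roughly halved viability, making its arm harsher than the cetuximab and BYL719 arms.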 Unmarked entries are inactive. The numbers tell different reagents against one gene apart. Not all columns of the deposit are shown. No sequences are given here. Not given: the amount of reagent, the time to read-out."}
{"gene knocked down": "PLK1 (polo like kinase 1)", "siRNA no.": 1, "synergy score with trametinib": "0.0576 (active)", "synergy score with cetuximab": 0.248, "synergy score with BYL719": -0.0995}
{"gene knocked down": "PLK1 (polo like kinase 1)", "siRNA no.": 2, "synergy score with trametinib": 0.0367, "synergy score with cetuximab": 0.0654, "synergy score with BYL719": 0.0345}
{"gene knocked down": "PLK1 (polo like kinase 1)", "siRNA no.": 3, "synergy score with trametinib": -0.000437, "synergy score with cetuximab": -0.0977, "synergy score with BYL719": -0.0608}
{"gene knocked down": "PLK1 (polo like kinase 1)", "siRNA no.": 4, "synergy score with trametinib": -0.14, "synergy score with cetuximab": -0.105, "synergy score with BYL719": -0.0859}
{"gene knocked down": "GTF2H1 (general transcription factor IIH subunit 1)", "siRNA no.": 1, "synergy score with trametinib": -0.0556, "synergy score with cetuximab": -0.0994, "synergy score with BYL719": -0.294}
{"gene knocked down": "GTF2H1 (general transcription factor IIH subunit 1)", "siRNA no.": 2, "synergy score with trametinib": -0.0476, "synergy score with cetuximab": -0.0663, "synergy score with BYL719": -0.23}
{"gene knocked down": "GTF2H1 (general transcription factor IIH subunit 1)", "siRNA no.": 3, "synergy score with trametinib": -0.0209, "synergy score with cetuximab": -0.0663, "synergy score with BYL719": -0.122}
{"gene knocked down": "GTF2H1 (general transcription factor IIH subunit 1)", "siRNA no.": 4, "synergy score with trametinib": 0.0572, "synergy score with cetuximab": -0.00377, "synergy score with BYL719": -0.0864}
{"gene knocked down": "IKBKB (inhibitor of nuclear factor kappa B kinase subunit beta)", "siRNA no.": 1, "synergy score with trametinib": -0.0651, "synergy score with cetuximab": -0.056, "synergy score with BYL719": -0.0636}
{"gene knocked down": "IKBKB (inhibitor of nuclear factor kappa B kinase subunit beta)", "siRNA no.": 2, "synergy score with trametinib": 0.0675, "synergy score with cetuximab": -0.0663, "synergy score with BYL719": -0.23}
{"gene knocked down": "IKBKB (inhibitor of nuclear factor kappa B kinase subunit beta)", "siRNA no.": 3, "synergy score with trametinib": 0.0576, "synergy score with cetuximab": -0.0333, "synergy score with BYL719": -0.146}
{"gene knocked down": "IKBKB (inhibitor of nuclear factor kappa B kinase subunit beta)", "siRNA no.": 4, "synergy score with trametinib": 0.014, "synergy score with cetuximab": -0.0663, "synergy score with BYL719": -0.23}
{"gene knocked down": "SF3B1 (splicing factor 3b subunit 1)", "siRNA no.": 1, "synergy score with trametinib": "-0.249 (active)", "synergy score with cetuximab": 0.126, "synergy score with BYL719": -0.0695}
{"gene knocked down": "SF3B1 (splicing factor 3b subunit 1)", "siRNA no.": 2, "synergy score with trametinib": -0.165, "synergy score with cetuximab": -0.0193, "synergy score with BYL719": -0.0619}
{"gene knocked down": "SF3B1 (splicing factor 3b subunit 1)", "siRNA no.": 3, "synergy score with trametinib": -0.108, "synergy score with cetuximab": -0.0104, "synergy score with BYL719": -0.144}
{"gene knocked down": "SF3B1 (splicing factor 3b subunit 1)", "siRNA no.": 4, "synergy score with trametinib": -0.233, "synergy score with cetuximab": -0.15, "synergy score with BYL719": -0.0787}
{"gene knocked down": "PIM1 (Pim-1 proto-oncogene, serine/threonine kinase)", "siRNA no.": 1, "synergy score with trametinib": "0.155 (active)", "synergy score with cetuximab": 0.0667, "synergy score with BYL719": 0.0496}
{"gene knocked down": "PIM1 (Pim-1 proto-oncogene, serine/threonine kinase)", "siRNA no.": 2, "synergy score with trametinib": 0.042, "synergy score with cetuximab": -0.0663, "synergy score with BYL719": -0.194}
{"gene knocked down": "PIM1 (Pim-1 proto-oncogene, serine/threonine kinase)", "siRNA no.": 3, "synergy score with trametinib": "0.118 (active)", "synergy score with cetuximab": -0.072, "synergy score with BYL719": -0.058}
{"gene knocked down": "PIM1 (Pim-1 proto-oncogene, serine/threonine kinase)", "siRNA no.": 4, "synergy score with trametinib": 0.0909, "synergy score with cetuximab": 0.0156, "synergy score with BYL719": -0.283}
{"gene knocked down": "HSPB8 (heat shock protein family B (small) member 8)", "siRNA no.": 1, "synergy score with trametinib": "0.247 (active)", "synergy score with cetuximab": -0.0663, "synergy score with BYL719": 0.0224}
{"gene knocked down": "HSPB8 (heat shock protein family B (small) member 8)", "siRNA no.": 2, "synergy score with trametinib": 0.00383, "synergy score with cetuximab": 0.068, "synergy score with BYL719": -0.23}
{"gene knocked down": "HSPB8 (heat shock protein family B (small) member 8)", "siRNA no.": 3, "synergy score with trametinib": 0.0368, "synergy score with cetuximab": 0.052, "synergy score with BYL719": -0.269}
{"gene knocked down": "HSPB8 (heat shock protein family B (small) member 8)", "siRNA no.": 4, "synergy score with trametinib": 0.0936, "synergy score with cetuximab": 0.0757, "synergy score with BYL719": -0.216}
